Experimental data as given in patent US7572809B2, “Isoquinoline aminopyrazole derivatives” (Hoffmann-La Roche Inc., priority 2005, dated 2009).
Some entries share one result that the patent states for a list of compounds. Some compounds share one range, which may span the group rather than tell each member.

What follows are compounds tested against T1, Aurora A kinase (Homo sapiens, UniProt O14965) (assay: IC50 determination for inhibitors of Aurora A kinase (ELISA, GST-Histone H3 substrate)). Settings: mutant Aurora A kinase, 30 μM ATP, 40 minutes.
T1 sequence (O14965 1-403): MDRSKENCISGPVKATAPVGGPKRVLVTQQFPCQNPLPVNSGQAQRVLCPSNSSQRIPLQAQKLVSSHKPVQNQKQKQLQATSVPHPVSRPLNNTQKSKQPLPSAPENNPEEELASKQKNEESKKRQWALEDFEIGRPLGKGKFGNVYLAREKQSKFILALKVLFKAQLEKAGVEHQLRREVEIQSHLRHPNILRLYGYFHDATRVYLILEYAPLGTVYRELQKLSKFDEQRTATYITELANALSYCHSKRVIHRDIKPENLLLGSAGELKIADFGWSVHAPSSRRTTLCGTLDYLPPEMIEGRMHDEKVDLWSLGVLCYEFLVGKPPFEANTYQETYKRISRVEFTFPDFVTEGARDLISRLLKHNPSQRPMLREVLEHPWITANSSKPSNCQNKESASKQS
Format: biochemical
Method: IC50 Determination for Inhibitors of Aurora A Kinase
Aurora A is a Serine Threonine Kinase Involved in Spindle Assembly and Chromosome Segregation.
The assay is a typically ELISA-type assay where substrate (GST-Histone H3) is coupled to the assay-plate and is phosphorylated by the kinase. Phosphorylation is detected by a mouse anti-Phosphopeptid mAb and an HRP-labeled anti-mouse pAb. The assay is validated for IC50-determination.
Kinase activities were measured by Enzyme-Linked Immunosorbent Assay (ELISA): Maxisorp 384-well plates (Nunc) were coated with recombinant fusion protein comprising residues 1-15 of HistoneH3 fused to the N-terminus of Glutathione-S-Transferase. Plates were then blocked with a solution of 1 mg/mL I-block (Tropix cat# T2015—highly purified form of casein) in phosphate-buffered saline. Kinase reactions were carried out in the wells of the ELISA plate by combining an appropriate amount of mutant Aurora A kinase with test compound and 30 μM ATP. The reaction buffer was […] Kinase Buffer (Cell Signaling cat # 9802) supplemented with 1 μg/mL I-block. Reactions were stopped after 40 minutes by addition of 25 mM EDTA (ethylenediaminetetraacetic acid). After washing, substrate phosphorylation was detected by addition of anti-phospho-Histone H3 (Ser 10) 6G3 mAb (Cell Signaling cat #9706) and sheep anti-mouse pAb-HRP (Amersham cat# NA931V), followed by colorimetric development with TMB (3,3′,5,5′-tetramethylbenzidine from Kirkegaard & Perry Laboratories). After readout of the absorbance, IC50 values were calculated using a non-linear curve fit (XLfit® software (ID Business Solution Ltd., Guilford, Surrey, UK)).

SMILES | IC50 Aurora A kinase inhibition
Cc1cc(Nc2cc3ccccc3c(-c3ccc4ccccc4c3)n2)n[nH]1 [Example 152, (5-Methyl-1H-pyrazol-3-yl)-(1-naphthalen-2-yl-isoquinolin-3-yl)-amine] | 1 to 15000 nM
COc1ccc(-c2nc(Nc3cc(C)[nH]n3)cc3ccccc23)cc1OC [Example 156, [1-(3,4-Dimethoxy-phenyl)-isoquinolin-3-yl]-(5-methyl-1H-pyrazol-3-yl)-amine] | 1 to 15000 nM
Cc1cc(Nc2cc3ccccc3c(-c3csc4ccccc34)n2)n[nH]1 [Example 159, (1-Benzo[b]thiophen-3-yl-isoquinolin-3-yl)-(5-methyl-1H-pyrazol-3-yl)-amine] | 1 to 15000 nM
Cc1cc(Nc2cc3ccccc3c(-c3cnn(C)c3)n2)n[nH]1 [Example 164, (5-Methyl-1H-pyrazol-3-yl)-[1-(1-methyl-1H-pyrazol-4-yl)-isoquinolin-3-yl]-amine] | 1 to 15000 nM
COc1ccc2c(-c3ccc(Cl)cc3)nc(Nc3cc(C)[nH]n3)cc2c1 [Example 171, [1-(4-Chloro-phenyl)-6-methoxy-isoquinolin-3-yl]-(5-methyl-1H-pyrazol-3-yl)-amine] | 1 to 15000 nM
COc1ccc2c(-c3cccc(C(F)(F)F)c3)nc(Nc3cc(C)[nH]n3)cc2c1 [Example 176, [1-(3-trifluoromethyl-phenyl)-6-methoxy-isoquinolin-3-yl]-(5-methyl-1H-pyrazol-3-yl)-amine] | 1 to 15000 nM
COc1ccc2c(-c3ccc(C(C)=O)cc3)nc(Nc3cc(C)[nH]n3)cc2c1 [Example 179, 1-{4-[3-(5-Methyl-1H-pyrazol-3-ylamino)-6-methoxy-isoquinolin-1-yl]-phenyl}-ethanone] | 1 to 15000 nM
COc1ccc2c(-c3cscc3C)nc(Nc3cc(C)[nH]n3)cc2c1 [Example 188, (5-Methyl-1H-pyrazol-3-yl)-[1-(4-methyl-thiophen-3-yl)-6-methoxy-isoquinolin-3-yl]-amine] | 1 to 15000 nM
COc1ccc2c(-c3ccsc3)nc(Nc3cc(C)[nH]n3)cc2c1 [Example 189, (5-Methyl-1H-pyrazol-3-yl)-(1-thiophen-3-yl-6-methoxy-isoquinolin-3-yl)-amine] | 1 to 15000 nM
COc1ccc2c(-c3cccnc3)nc(Nc3cc(C)[nH]n3)cc2c1 [Example 192, (5-Methyl-1H-pyrazol-3-yl)-(1-pyridin-3-yl-6-methoxy-isoquinolin-3-yl)-amine] | 1 to 15000 nM
COc1cccc(-c2nc(Nc3cc(C)[nH]n3)cc3ccc(OC)cc23)c1 [Example 207, [1-(3-Methoxy-phenyl)-7-methoxy-isoquinolin-3-yl]-(5-methyl-1H-pyrazol-3-yl)-amine] | 1 to 15000 nM
COc1cccc(-c2nc(Nc3cc(C)[nH]n3)cc3c(OC)c(OC)ccc23)c1 [Example 216, [1-(3-Methoxy-phenyl)-5,6-dimethoxy-isoquinolin-3-yl]-(5-methyl-1H-pyrazol-3-yl)-amine] | 1 to 15000 nM
FC(F)(F)c1ccc(-c2nc(Nc3cc[nH]n3)cc3ccccc23)cc1 [Example 220, (1H-Pyrazol-3-yl)-[1-(4-trifluoromethyl-phenyl)-isoquinolin-3-yl]-amine] | 1 to 15000 nM
CCOC(=O)c1cccc(-c2nc(Nc3cc[nH]n3)cc3ccccc23)c1 [Example 222, 3-[3-(1H-Pyrazol-3-ylamino)-isoquinolin-1-yl]-benzoic acid ethyl ester] | 1 to 15000 nM
O=C(O)c1ccc(-c2nc(Nc3cc[nH]n3)cc3ccccc23)cc1 [Example 225, 4-[3-(1H-Pyrazol-3-ylamino)-isoquinolin-1-yl]-benzoic acid] | 1 to 15000 nM
Cc1cccc(-c2nc(Nc3cc[nH]n3)cc3ccccc23)c1 [Example 233, (1H-Pyrazol-3-yl)-(1-m-tolyl-isoquinolin-3-yl)-amine] | 1 to 15000 nM

SMILES | IC50 Aurora A kinase inhibition
CC(=O)c1cccc(-c2nc(Nc3cc[nH]n3)cc3ccccc23)c1 [Example 236, 1-{3-[3-(1H-Pyrazol-3-ylamino)-isoquinolin-1-yl]-phenyl}-ethanone] | 1 to 15000 nM
c1ccc2c(-c3csc4ccccc34)nc(Nc3cc[nH]n3)cc2c1 [Example 240, (1-Benzo[b]thiophen-3-yl-isoquinolin-3-yl)-(1H-pyrazol-3-yl)-amine] | 1 to 15000 nM
COc1ccc2c(-c3ccc(C(F)(F)F)cc3)nc(Nc3cc[nH]n3)cc2c1 [Example 255, [6-Methoxy-1-(4-trifluoromethyl-phenyl)-isoquinolin-3-yl]-(1H-pyrazol-3-yl)-amine] | 1 to 15000 nM
COc1ccc2c(-c3cc(F)cc(F)c3)nc(Nc3cc[nH]n3)cc2c1 [Example 261, [1-(3,5-Difluoro-phenyl)-6-methoxy-isoquinolin-3-yl]-(1H-pyrazol-3-yl)-amine] | 1 to 15000 nM
COc1ccc2c(-c3ccc(NC(C)=O)cc3)nc(Nc3cc[nH]n3)cc2c1 [Example 269, N-{4-[6-Methoxy-3-(1H-pyrazol-3-ylamino)-isoquinolin-1-yl]-phenyl}-acetamide] | 1 to 15000 nM
CCCCOc1ccc(Nc2nc(Nc3cc(C)[nH]n3)cc3cc(OC)ccc23)cc1 [Example 281, N^1-(4-Butoxy-phenyl)-6-methoxy-N^3-(5-methyl-1H-pyrazol-3-yl)-isoquinoline-1,3-diamine] | 1 to 15000 nM
COc1ccc2c(Nc3ccncc3)nc(Nc3cc(C)[nH]n3)cc2c1 [Example 288, 6-Methoxy-N^3-(5-methyl-1H-pyrazol-3-yl)-N^1-pyridin-4-yl-isoquinoline-1,3-diamine] | 1 to 15000 nM
Cc1cc(Nc2cc3ccccc3c(Nc3cccc(Cl)c3)n2)n[nH]1 [Example 294, N^1-(3-Chloro-phenyl)-N^3-(5-methyl-1H-pyrazol-3-yl)-isoquinoline-1,3-diamine] | 1 to 15000 nM
COc1cccc2c(Nc3ccc(C#N)cc3)nc(Nc3cc(C)[nH]n3)cc12 [Example 297, 4-[5-Methoxy-3-(5-methyl-1H-pyrazol-3-ylamino)-isoquinolin-1-ylamino]-benzonitrile] | 1 to 15000 nM
COc1cccc(-c2nc(Nc3cc(C)[nH]n3)cc3cc(OCCN4CCOCC4)ccc23)c1 [Example 300, [1-(3-Methoxy-phenyl)-6-(2-morpholin-4-yl-ethoxy)-isoquinolin-3-yl]-(5-methyl-1H-pyrazol-3-yl)-amine] | 1 to 15000 nM
Cc1cc(Nc2cc3cc(C(=O)N4CCOCC4)ccc3c(Oc3ccc(F)cc3)n2)n[nH]1 [Example 303, [1-(4-Fluoro-phenoxy)-3-(5-methyl-1H-pyrazol-3-ylamino)-isoquinolin-6-yl]-morpholin-4-yl-methanone] | 1 to 15000 nM
COc1ccc2c(Sc3ccc(Cl)cc3)nc(Nc3cc(C)[nH]n3)cc2c1 [Example 309, [1-(4-Chloro-phenylsulfanyl)-6-methoxy-isoquinolin-3-yl]-(5-methyl-1H-pyrazol-3-yl)-amine] | 1 to 15000 nM
Cc1cc(Nc2cc3ccccc3c(Sc3ccc(F)cc3)n2)n[nH]1 [Example 312, [1-(4-Fluoro-phenylsulfanyl)-isoquinolin-3-yl]-(5-methyl-1H-pyrazol-3-yl)-amine] | 1 to 15000 nM
COc1ccc2c(Sc3ccccc3F)nc(Nc3cc(C)[nH]n3)cc2c1 [Example 315, [1-(2-Fluoro-phenylsulfanyl)-6-methoxy-isoquinolin-3-yl]-(5-methyl-1H-pyrazol-3-yl)-amine] | 1 to 15000 nM
COc1ccc2c(C(=O)N3CCOCC3)nc(Nc3cc(C)[nH]n3)cc2c1 [Example 317, [6-Methoxy-3-(5-methyl-1H-pyrazol-3-ylamino)-isoquinolin-1-yl]-morpholin-4-yl-methanone] | 1 to 15000 nM
COc1ccc2c(C(=O)NCC3CC3)nc(Nc3cc(C)[nH]n3)cc2c1 [Example 318, 6-Methoxy-3-(5-methyl-1H-pyrazol-3-ylamino)-isoquinoline-1-carboxylic acid cyclopropylmethyl-amide] | 1 to 15000 nM
